Laboratory results: article PMC4741719, “Acquisition of a single EZH2 D1 domain mutation confers acquired resistance to EZH2-targeted inhibitors” (Oncotarget, 2015)
Like-named read-outs stand apart in the source and are kept apart here.

Key:
E-200 Pfeiffer cells = assay: Viability assay, EPZ-6438-resistant E-200 Pfeiffer cells; format: cell-based; details: Homo sapiens, read-out: IC50 cell viability
E-100 Pfeiffer cells = assay: Viability assay, EPZ-6438-resistant E-100 Pfeiffer cells; format: cell-based; details: Homo sapiens, read-out: IC50 cell viability
G401 cells (Parental) = assay: cells; details: Homo sapiens, G-401, read-out: IC50 cell viability
[1] = tested on: H3K27me3 in Pfeiffer cells (Parental); assay: Cellular H3K27me3 AlphaLISA, parental Pfeiffer cells; format: cell-based; details: Homo sapiens, Figure 3B
Description: Cells were plated at 500 cells/well in 10% DMEM, 50 uL/well in 384 well plates. […] DMSO (0.1%) was used as a vehicle control. Plates were incubated for 72 hours at 37°C. […] Plates were read using AlphaLISA protocol on Envision (Perkin Elmer).

[2] = tested on: Pfeiffer cells (Parental); assay: Viability assay (Cell-Titer-Glo, 6 days), parental Pfeiffer cells; format: cell-based; details: Homo sapiens
[3] = tested on: H3K27me3 in E-200 Pfeiffer cells; assay: Cellular H3K27me3 AlphaLISA, E-200 Pfeiffer cells; format: cell-based; details: Homo sapiens; Pfeiffer E-200; Figure 3B
Description: Cells were plated at 500 cells/well in 10% DMEM, 50 uL/well in 384 well plates. […] DMSO (0.1%) was used as a vehicle control. Plates were incubated for 72 hours at 37°C. […] Plates were read using AlphaLISA protocol on Envision (Perkin Elmer). […] Pfeiffer cells were treated overnight with 100 μg/mL of N-ethyl-N-nitrosourea (ENU; Sigma Aldrich, St. […] After 7 days, cells were dosed again with fresh compound and grown until outgrowth (3 to 4 weeks). EZH2 cDNA from outgrown cells was amplified by RT-PCR using Transcriptor High Fidelity cDNA Synthesis Kit (Roche, 05081955001) and submitted for NGS. Ion semiconductor sequencing (Ion Torrent) and single molecule real time sequencing (PacBio) were performed at Molecular MD and Expression analysis (Quintiles), respectively.

IC50 [3]: > 10000 nM
Compound: CCN(c1cc(-c2ccc(CN3CCOCC3)cc2)cc(C(=O)NCc2c(C)cc(C)[nH]c2=O)c1C)C1CCOCC1 [EPZ-6438]
IC50 (E-200 Pfeiffer cells; E-200, Unwash, Figure 1E): > 10000 nM | IC50 (E-200 Pfeiffer cells; E-200, Wash 8 weeks (drug withdrawal), Figure 1E): > 10000 nM | IC50 (E-200 Pfeiffer cells; E-200 Pfeiffer, Figure 1C): > 10000 nM | IC50 (E-100 Pfeiffer cells; E-100, Unwash, Figure 1E): > 10000 nM | IC50 (E-100 Pfeiffer cells; E-100, Wash 8 weeks (drug withdrawal), Figure 1E): > 10000 nM | IC50 (E-100 Pfeiffer cells; E-100 Pfeiffer, Figure 1C): > 10000 nM | IC50 (G401 cells (Parental)): 1030 ± 172 nM | IC50 [1]: 11 ± 3 nM | IC50 ([2]; Parental Pfeiffer, Figure 1C, three independent experiments): 7 ± 1 nM | IC50 ([2]; Pfeiffer Parental, Figure 4B): 9 ± 3 nM
